Test [1] addresses T1, TRAF6 (mouse (endogenous in RAW 264.7)) (UniProt P70196).
T1 sequence: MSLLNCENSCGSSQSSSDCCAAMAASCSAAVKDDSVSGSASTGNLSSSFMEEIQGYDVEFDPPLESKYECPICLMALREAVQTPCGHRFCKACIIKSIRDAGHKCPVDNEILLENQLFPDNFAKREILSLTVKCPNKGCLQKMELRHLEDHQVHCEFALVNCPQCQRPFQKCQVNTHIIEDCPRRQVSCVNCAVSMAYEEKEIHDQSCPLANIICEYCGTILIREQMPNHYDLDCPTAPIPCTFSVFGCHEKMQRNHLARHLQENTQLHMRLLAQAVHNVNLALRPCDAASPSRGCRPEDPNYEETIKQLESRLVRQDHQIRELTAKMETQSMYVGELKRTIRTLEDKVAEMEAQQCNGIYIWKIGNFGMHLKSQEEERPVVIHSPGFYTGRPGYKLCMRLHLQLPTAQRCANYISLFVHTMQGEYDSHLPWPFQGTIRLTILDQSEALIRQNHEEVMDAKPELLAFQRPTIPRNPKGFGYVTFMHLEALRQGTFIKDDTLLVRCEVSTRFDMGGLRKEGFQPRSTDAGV
Nature of the test: co-IP; total lysates of RAW 264.7 cells incubated with sRANKL (50 ng/ml) for 2 days; IP with ZAS3, TRAF6 or control IgG antibodies (Catch and Release v2.0), 4°C for 16 hours, 5 washes; Western blot of the eluates. For orientation: In western blotting, separated proteins are transferred to a membrane and probed.

The chains behind the UniProt entries cited, without tags or fusion partners.
UniProt A2A884: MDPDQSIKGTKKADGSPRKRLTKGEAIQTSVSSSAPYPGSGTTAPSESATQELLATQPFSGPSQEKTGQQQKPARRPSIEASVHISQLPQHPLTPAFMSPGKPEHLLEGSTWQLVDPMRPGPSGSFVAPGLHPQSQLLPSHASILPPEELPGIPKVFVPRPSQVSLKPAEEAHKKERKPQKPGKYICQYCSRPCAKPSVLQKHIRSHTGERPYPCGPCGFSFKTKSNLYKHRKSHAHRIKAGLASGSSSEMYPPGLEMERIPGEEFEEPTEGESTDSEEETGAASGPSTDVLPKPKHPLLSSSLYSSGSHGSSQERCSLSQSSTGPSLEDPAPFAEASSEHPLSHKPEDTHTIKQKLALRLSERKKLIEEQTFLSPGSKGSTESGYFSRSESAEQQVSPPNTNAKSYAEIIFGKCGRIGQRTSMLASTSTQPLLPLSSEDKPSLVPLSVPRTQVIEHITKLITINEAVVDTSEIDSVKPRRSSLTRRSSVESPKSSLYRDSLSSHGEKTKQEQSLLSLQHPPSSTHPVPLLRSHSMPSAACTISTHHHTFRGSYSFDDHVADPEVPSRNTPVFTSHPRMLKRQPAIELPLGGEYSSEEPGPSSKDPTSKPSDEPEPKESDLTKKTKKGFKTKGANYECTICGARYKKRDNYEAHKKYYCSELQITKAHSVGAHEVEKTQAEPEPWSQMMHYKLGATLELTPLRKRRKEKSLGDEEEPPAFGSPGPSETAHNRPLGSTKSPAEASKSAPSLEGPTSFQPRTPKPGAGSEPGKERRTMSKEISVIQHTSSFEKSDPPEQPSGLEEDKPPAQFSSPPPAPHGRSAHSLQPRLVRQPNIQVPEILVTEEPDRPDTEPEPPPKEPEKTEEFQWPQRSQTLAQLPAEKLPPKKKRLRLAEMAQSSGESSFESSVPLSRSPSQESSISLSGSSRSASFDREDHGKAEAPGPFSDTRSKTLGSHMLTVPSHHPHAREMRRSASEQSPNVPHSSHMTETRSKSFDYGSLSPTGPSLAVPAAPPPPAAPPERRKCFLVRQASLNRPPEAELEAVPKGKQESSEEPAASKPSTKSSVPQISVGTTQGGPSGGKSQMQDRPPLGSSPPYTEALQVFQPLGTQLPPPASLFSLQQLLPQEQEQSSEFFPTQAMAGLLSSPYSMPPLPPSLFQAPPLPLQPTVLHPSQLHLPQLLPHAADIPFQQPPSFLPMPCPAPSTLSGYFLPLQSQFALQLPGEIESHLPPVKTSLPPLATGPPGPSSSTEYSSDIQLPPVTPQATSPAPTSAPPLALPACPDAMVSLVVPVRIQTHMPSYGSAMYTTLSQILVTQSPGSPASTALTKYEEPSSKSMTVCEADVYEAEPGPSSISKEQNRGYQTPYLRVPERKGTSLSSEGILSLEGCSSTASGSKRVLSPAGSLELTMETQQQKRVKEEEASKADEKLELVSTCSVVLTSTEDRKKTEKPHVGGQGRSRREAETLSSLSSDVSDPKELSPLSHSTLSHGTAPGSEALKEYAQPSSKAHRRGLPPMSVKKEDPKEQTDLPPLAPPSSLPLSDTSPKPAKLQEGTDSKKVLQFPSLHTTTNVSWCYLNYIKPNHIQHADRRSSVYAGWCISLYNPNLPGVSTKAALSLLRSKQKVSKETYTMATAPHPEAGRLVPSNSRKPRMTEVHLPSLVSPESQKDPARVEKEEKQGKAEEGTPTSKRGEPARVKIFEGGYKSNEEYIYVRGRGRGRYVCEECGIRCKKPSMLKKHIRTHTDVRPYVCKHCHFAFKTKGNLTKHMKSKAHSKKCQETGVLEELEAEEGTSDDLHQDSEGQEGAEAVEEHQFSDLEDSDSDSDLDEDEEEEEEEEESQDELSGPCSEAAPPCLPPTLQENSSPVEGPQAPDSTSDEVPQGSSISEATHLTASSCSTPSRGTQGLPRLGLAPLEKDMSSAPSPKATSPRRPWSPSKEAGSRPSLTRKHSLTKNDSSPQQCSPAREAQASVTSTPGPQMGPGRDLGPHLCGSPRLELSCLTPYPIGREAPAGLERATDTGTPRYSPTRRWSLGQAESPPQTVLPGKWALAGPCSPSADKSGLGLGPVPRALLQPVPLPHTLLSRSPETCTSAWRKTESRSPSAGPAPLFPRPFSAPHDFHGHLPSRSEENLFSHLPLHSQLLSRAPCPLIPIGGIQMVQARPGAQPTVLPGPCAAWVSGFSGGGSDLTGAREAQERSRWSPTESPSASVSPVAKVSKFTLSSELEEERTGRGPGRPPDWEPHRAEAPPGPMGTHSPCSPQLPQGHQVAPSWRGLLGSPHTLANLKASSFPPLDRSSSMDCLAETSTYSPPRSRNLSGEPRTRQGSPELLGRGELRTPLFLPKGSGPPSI

For test [2], the target named is large zinc finger protein ZAS3 (mouse (endogenous in RAW 264.7)) (UniProt A2A884). The description is as above.

Results are given in words; binding and its absence hold for the method and conditions named. Binding seen in cells or lysates may run through a third protein. Some results given as binding are weak or reduced against the parent protein; the word gives no strength.

Take “large zinc finger protein ZAS3 (from UniProt A2A884 1-2348)”: the binding entry in test [1] is given as “binds”.

B1: TRAF6 (protein, UniProt P70196 1-530)
chain: T1 sequence
Consider B1, for which the binding result in test [2] was “binds”.

Source of the values: publication PMC3048431.
